From publication PMC8396726

By UniProt entry, the sequences of proteins in these tests, tags left out.
UniProt Q8IB67: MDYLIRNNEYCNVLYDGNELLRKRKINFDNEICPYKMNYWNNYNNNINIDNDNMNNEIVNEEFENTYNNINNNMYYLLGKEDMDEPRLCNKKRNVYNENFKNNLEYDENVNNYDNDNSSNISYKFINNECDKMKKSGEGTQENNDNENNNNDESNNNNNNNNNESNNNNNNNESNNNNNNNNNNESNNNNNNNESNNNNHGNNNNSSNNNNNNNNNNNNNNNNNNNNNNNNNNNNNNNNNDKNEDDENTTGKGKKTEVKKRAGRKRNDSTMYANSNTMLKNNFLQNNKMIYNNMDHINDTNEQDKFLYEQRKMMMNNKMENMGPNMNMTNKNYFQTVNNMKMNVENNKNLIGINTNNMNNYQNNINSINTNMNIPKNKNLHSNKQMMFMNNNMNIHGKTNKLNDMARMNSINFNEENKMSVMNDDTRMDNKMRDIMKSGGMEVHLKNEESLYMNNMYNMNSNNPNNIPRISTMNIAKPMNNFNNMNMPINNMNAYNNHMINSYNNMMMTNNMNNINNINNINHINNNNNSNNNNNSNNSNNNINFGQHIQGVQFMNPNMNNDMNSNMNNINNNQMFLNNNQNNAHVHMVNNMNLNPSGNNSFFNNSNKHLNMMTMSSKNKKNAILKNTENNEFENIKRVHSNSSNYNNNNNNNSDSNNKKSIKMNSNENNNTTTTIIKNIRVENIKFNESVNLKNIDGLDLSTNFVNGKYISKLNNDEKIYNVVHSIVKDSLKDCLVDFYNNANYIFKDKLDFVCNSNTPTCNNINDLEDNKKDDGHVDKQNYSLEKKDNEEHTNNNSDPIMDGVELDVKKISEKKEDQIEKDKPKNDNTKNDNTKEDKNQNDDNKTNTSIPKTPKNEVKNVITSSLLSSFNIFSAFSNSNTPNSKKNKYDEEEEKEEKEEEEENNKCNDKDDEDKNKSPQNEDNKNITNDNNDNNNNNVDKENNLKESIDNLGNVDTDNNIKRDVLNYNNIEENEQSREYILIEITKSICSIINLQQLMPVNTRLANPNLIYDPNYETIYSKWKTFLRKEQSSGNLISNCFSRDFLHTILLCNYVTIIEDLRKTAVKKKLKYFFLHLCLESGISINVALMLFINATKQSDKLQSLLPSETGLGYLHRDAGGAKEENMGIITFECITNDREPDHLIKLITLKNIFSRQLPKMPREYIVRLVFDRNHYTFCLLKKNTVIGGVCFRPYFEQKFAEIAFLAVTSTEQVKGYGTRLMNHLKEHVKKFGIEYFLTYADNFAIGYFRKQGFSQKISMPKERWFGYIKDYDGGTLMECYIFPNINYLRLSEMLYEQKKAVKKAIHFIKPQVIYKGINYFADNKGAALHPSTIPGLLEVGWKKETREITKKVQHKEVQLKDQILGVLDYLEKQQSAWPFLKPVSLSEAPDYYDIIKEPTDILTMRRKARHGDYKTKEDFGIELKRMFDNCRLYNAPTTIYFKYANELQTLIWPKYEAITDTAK
UniProt Q8IM62: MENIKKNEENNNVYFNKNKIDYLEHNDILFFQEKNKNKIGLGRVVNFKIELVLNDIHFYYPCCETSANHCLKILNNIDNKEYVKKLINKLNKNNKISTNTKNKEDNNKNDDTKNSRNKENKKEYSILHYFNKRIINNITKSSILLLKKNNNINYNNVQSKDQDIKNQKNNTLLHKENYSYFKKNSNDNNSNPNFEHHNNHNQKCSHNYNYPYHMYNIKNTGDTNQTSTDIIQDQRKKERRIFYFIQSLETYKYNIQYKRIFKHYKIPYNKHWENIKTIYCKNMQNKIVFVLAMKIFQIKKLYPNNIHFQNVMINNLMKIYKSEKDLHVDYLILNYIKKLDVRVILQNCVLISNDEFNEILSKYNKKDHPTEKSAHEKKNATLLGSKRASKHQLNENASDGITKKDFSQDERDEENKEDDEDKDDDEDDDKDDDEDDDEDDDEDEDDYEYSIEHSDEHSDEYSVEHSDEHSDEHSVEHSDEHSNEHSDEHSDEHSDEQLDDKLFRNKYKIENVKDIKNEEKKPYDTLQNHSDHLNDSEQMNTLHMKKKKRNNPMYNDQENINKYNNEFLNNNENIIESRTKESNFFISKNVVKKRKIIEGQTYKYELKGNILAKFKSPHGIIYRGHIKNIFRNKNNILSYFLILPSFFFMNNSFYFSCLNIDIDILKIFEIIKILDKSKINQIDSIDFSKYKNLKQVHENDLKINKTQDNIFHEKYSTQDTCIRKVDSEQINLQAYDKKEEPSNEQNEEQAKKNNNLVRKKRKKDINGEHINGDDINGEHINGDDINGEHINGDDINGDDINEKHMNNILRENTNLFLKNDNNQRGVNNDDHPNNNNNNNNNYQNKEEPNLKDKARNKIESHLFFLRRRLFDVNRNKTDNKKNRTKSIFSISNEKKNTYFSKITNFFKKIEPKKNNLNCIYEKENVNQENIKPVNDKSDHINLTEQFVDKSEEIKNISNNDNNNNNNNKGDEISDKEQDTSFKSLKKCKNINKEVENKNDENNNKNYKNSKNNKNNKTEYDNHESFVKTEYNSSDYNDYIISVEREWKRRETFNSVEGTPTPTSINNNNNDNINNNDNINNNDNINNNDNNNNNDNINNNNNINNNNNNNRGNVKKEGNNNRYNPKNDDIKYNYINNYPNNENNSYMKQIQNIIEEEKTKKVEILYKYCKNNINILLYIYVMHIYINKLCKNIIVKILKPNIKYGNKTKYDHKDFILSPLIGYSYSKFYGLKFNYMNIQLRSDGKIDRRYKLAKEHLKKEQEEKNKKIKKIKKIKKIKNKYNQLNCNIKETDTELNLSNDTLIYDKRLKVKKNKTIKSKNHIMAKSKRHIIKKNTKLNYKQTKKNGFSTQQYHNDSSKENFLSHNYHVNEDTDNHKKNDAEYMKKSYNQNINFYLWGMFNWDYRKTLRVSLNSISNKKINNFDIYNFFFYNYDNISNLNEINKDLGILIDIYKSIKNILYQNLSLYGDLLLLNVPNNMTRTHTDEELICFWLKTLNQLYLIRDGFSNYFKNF
UniProt Q8IAM1: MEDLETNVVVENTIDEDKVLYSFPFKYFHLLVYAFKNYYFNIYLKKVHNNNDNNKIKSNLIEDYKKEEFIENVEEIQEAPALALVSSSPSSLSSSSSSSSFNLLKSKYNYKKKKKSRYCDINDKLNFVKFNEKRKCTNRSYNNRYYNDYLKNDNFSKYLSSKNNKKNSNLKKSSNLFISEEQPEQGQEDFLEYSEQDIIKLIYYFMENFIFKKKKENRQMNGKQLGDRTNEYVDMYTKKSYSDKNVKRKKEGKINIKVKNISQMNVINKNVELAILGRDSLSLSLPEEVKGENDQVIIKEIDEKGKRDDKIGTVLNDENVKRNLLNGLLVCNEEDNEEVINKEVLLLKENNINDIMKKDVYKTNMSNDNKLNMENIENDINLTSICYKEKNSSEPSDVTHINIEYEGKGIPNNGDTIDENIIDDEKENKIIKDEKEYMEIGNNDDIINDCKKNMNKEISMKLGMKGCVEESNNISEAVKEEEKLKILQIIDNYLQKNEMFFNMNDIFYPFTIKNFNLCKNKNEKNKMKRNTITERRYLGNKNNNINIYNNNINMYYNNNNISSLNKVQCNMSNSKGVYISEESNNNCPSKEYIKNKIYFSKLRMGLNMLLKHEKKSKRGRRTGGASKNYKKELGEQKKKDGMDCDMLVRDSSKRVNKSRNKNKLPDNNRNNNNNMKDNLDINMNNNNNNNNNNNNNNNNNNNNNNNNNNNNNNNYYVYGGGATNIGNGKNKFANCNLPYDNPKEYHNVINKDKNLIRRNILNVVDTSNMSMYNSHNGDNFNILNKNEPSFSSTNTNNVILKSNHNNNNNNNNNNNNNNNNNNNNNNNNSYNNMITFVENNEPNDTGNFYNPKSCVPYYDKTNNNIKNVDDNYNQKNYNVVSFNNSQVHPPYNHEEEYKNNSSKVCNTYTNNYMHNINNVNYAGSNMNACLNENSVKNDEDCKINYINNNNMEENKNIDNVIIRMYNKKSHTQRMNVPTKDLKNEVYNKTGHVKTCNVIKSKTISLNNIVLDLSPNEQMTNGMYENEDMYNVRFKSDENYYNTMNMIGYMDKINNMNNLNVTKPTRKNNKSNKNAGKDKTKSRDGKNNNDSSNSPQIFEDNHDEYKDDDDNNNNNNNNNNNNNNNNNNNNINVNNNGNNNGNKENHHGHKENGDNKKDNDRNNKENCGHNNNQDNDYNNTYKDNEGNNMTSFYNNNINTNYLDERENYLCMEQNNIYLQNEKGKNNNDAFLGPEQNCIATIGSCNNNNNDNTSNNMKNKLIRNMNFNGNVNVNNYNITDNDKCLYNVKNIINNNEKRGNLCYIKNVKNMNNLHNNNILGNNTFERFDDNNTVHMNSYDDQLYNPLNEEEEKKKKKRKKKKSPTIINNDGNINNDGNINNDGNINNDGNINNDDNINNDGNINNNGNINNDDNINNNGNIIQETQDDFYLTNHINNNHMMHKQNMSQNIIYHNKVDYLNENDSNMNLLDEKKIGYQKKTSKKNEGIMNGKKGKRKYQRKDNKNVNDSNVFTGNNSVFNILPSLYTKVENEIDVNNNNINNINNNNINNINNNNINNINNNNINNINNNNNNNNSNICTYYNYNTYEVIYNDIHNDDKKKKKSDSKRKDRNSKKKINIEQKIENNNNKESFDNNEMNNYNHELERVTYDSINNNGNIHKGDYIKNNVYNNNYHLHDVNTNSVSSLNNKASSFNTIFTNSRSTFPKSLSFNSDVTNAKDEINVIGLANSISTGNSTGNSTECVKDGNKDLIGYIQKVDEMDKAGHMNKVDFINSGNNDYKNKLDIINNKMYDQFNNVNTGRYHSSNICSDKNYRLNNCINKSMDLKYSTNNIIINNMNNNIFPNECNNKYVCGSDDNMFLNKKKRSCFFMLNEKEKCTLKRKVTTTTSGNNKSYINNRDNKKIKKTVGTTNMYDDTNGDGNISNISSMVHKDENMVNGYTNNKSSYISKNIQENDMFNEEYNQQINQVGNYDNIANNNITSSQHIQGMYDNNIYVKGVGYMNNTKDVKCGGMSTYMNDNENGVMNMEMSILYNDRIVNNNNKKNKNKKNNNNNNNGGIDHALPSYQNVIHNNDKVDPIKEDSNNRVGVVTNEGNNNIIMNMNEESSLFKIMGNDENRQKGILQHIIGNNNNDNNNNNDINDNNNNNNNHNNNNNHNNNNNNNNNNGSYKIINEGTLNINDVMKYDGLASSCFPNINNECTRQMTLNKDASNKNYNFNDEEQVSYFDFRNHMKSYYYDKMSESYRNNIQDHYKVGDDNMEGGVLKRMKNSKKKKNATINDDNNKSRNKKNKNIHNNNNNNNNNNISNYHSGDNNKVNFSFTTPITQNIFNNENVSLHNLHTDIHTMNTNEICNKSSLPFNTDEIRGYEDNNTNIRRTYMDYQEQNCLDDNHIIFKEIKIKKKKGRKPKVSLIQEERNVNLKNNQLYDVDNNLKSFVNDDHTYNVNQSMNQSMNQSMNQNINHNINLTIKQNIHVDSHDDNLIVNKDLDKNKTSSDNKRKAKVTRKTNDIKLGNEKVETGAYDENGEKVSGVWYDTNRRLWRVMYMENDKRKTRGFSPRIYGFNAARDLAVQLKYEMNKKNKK

T1: PF3D7_1019700::GFP (P. falciparum 3D7) (UniProt Q8IJK5)
T1 sequence: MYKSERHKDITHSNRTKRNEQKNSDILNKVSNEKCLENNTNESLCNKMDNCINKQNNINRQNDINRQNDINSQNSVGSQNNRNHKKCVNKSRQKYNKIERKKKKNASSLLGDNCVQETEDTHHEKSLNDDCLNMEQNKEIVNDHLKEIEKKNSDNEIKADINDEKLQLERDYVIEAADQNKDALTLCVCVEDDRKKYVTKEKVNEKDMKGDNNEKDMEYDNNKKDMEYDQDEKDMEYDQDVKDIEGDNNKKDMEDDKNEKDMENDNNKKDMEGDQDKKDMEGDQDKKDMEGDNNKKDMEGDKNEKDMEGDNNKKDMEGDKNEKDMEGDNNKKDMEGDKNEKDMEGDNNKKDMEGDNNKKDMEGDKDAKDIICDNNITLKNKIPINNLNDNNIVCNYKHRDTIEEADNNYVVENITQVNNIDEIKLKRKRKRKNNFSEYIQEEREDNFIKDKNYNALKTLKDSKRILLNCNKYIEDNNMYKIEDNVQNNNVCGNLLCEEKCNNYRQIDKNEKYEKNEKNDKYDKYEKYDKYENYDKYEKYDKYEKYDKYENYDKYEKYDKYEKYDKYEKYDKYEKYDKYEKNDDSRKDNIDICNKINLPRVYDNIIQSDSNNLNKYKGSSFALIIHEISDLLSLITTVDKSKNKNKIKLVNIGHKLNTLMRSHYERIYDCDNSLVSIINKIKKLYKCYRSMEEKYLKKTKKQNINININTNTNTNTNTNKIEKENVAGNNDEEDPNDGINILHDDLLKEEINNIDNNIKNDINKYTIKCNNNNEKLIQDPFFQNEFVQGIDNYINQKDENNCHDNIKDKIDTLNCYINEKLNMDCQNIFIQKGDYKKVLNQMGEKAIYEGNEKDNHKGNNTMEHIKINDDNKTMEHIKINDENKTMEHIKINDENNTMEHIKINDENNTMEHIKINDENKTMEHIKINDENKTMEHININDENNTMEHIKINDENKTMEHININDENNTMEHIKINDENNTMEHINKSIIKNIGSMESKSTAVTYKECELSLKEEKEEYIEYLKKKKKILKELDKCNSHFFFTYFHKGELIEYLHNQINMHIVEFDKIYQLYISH

B1: PF3D7_1019700 (protein, UniProt Q8IJK5 1-1074)
chain: T1 sequence
B2: PfNAPS (protein, UniProt Q8I2W3 1-269)
chain: MKRDRSENSVENTDPKHTKIENDDPLMPFMQDFEDIQKDIEQLDIKCAHEQMNIQKQYDEKKKPLFEKRDEIIQKIPGFWANTLRKHPALSDIVPEDIDILNHLVKLDLKDNMDNNGSYKITFIFGEKAKEFMEPLTLVKHVTFDNNQEKVVECTRIKWKEGKNPIAAVTHNRSDLDNEIPKWSIFEWFTTDELQDKPDVGELIRREIWHNPLSYYLGLEEFDEFDDDFDEEFDDDDDDDDDDDDDDDDDDKDDDLDGDDDGNNDDNDD
B3: Pf14-3-3I (protein, UniProt C0H4V6 1-262)
chain: MATSEELKQLRCDCTYRSKLAEQAERYDEMADAMRTLVEQCVNNDKDELTVEERNLLSVAYKNAVGARRASWRIISSVEQKEMSKANVHNKNVAATYRKKVEEELNNICQDILNLLTKKLIPNTSESESKVFYYKMKGDYYRYISEFSCDEGKKEASNCAQEAYQKATDIAENELPSTHPIRLGLALNYSVFFYEILNQPHQACEMAKRAFDDAITEFDNVSEDSYKDSTLIMQLLRDNLTLWTSDLQGDQTEEKSKDEGLE
B4: AP2-EXP (protein, UniProt Q8IKH2 1-813)
chain: MEDNNMNNEQKFNPNMLGMENNVSQEPAAETVVVEPKKKVGRPRGASSNNKVIKKEEKVSTSSSGYPGVSWNKRMCAWLAFFYDGASRRSRTFHPKHFNMDKEKARLAAVEFMKTVENNGRKKSGKGKGGRSKSKQLNDEHFNALHNSDLGNSMNGMNAHNNLHMQLMSMNPAFYMQSLNRNFNMSANERNNMFNSLNNHSGLSGPLKNMQDHNELYMQNQVFNNMHLLNNSNSSLNNNRNNNSNNNNNSSNSHNNSSNNLHYLNELIFNSNLFHGNNMGYHEGNVNTGVSDLLNLDDNVGLHNKDVENLMNVLFRQNYNMNMNISNIDKHYLQGSNILMNGPQGNNNNMNNSNSNNNNNSGSNNNSNNNNNNNNTNNNNNSGSNNNSNNNNNMNNNKNNNNNNNNSNSGNSNSSQNQHMYLSSHNNDIFENNNNNSNSGNNDSNNNNQSNISNFYDYNFDLYRGNVSPNIMDMVHRMNNNMKDGKNLDSLNDDIGNDLNFRLHENSAWINQLRQSHNNLCNNINNNHCDLCHTTSPDHSLKGQMELSKRKKTTSNINNRKNDLLEDSVNSFDLNMPCSCSSHLRNQKNHFCVYYNQSNSSSQNENYKNYLNWNPNSNNNLINNSIDKNDTPLDNSNGNSGRNLGDSNLLCISQNNNGTSSQSTNPKHLSQTIDMNQKQSSHTSQYSNNPNLQDIQNQFSYQNQPNINMDMHSQLNLIKQNCNYSPKCINNNKKKSTTGTSKDSTRKLLSSHSLSMPLEQQHQSSKKNNLSSSFIENNLCTKLNSIINFEWINNDLKMNLNGNKSNSYDNSES
B5: heterochromatin protein 1 (HP1) (protein, UniProt Q8I5K4 1-266)
chain: MTGSDEEFEIGDILEIKKKKNGFIYLVKWKGYSDDENTWEPESNLIHLTTFKKKMESLKTNFLSKANETNGDGKILKNHILAPTQEDDSIKSKGRSSLAPRRKMSRKSLTNKLENKKNLSLSDNSLKKSDEEDNESVKHENHVNDGNLLNVEDVYSVRIKNKKLEFLASLKNESPQWVEETNIRRTGHLNIKVNDFKRYVRRKKSSRGNRIVIKNLHNVGDELYISVIHNINNKEIHSLYPSKVIEYIYPQELLNFLLSRLRYRTA

Assays:
[1] = target: PfPHD1::Myc (P. falciparum 3D7) (UniProt Q8IJW2); assay: affinity purification with mass spectrometry; single-step pulldown with Myc-trap beads from trophozoite nuclear extracts of PfPHD1::Myc parasites; LC-MS/MS; SAINT probability >94%, 1% FDR; WT 3D7 as control
[2] = target: PfGCN5::GFP (P. falciparum) (UniProt Q8IB67); assay: affinity purification with mass spectrometry; single-step IP with GFP-trap beads from PfGCN5::GFP parasites at the ring stage; LC-MS/MS; two replicates; SAINT probability >94%, 1% FDR
[3] = target: PfGCN5::PTP (P. falciparum 3D7) (UniProt Q8IB67); assay: affinity purification with mass spectrometry; tandem affinity purification (IgG agarose, release with TEV protease, anti-protein C beads, elution with EGTA/EDTA) from nuclear extracts of 10^9 synchronized trophozoites of the PfGCN5::PTP line; 150 mM KCl, 20 mM Tris-HCl pH 7.7, 3 mM MgCl2, 0.1% Tween 20, 4°C; LC-MS/MS; SAINT probability >94%, FDR <1%; three replicates; WT 3D7 as control
[4] = target: PfGCN5::GFP (P. falciparum) (UniProt Q8IB67); assay: affinity purification with mass spectrometry; IP with GFP-Trap from trophozoite nuclear extracts of the PfGCN5::GFP, GCN5-ΔBrD::GFP and PHD1-ΔPHD::GFP lines; LC-MS/MS; SAINT probability >94%, FDR <1%
[5] = target: T1, PF3D7_1019700::GFP (P. falciparum 3D7); assay: affinity purification with mass spectrometry; single-step IP with anti-GFP (GFP-trap) beads from nuclear extracts of PF3D7_1019700::GFP parasites; LC-MS/MS; two replicates; SAINT probability >94%, 1% FDR; WT 3D7 as control
[6] = target: PfGCN5-ΔBrD::GFP (P. falciparum 3D7); assay: affinity purification with mass spectrometry; IP with GFP-Trap from trophozoite nuclear extracts of the PfGCN5::GFP, GCN5-ΔBrD::GFP and PHD1-ΔPHD::GFP lines; LC-MS/MS; SAINT probability >94%, FDR <1%
[7] = target: PfPHD1-ΔPHD::GFP (P. falciparum 3D7); assay: as above
[8] = target: T1, PF3D7_1019700::GFP (P. falciparum 3D7); assay: affinity purification with mass spectrometry; single-step IP with anti-GFP (GFP-trap) beads from nuclear extracts of PF3D7_1019700::GFP parasites; LC-MS/MS; two replicates; SAINT probability >94%, 1% FDR; WT 3D7 as control; remark: listed apart in the source

| Molecule | binding [1] | binding [2] | binding [3] | binding [4] | binding [5] | binding [6] | binding [7] | binding [8] |
| --- | --- | --- | --- | --- | --- | --- | --- | --- |
| AP2-I (from UniProt Q8IJW6 1-1597) | binds |  |  |  |  |  |  |  |
| PF3D7_1107800 (from UniProt Q8IIS4 1-1828) |  | binds |  |  |  |  |  |  |
| PF3D7_1239200 (from UniProt Q8I531 1-2577) | binds |  |  |  |  |  |  |  |
| PF3D7_1364400 (from UniProt A0A5K1K8L4 1-3265) | binds | no binding (only at the ring stage) | binds | binds |  |  |  |  |
| PF3D7_1402800 (from UniProt Q8IM62 1-1511) | binds | binds | binds | binds |  |  |  |  |
| PfADA2 (from UniProt Q8IJP9) | binds | binds | binds | binds |  |  |  |  |
| PfAP2-LT (from UniProt Q8IAM1 1-2577) | binds | binds | binds | binds |  |  |  |  |
| PfGCN5 (from UniProt Q8IB67 1-1465) (enzyme) | binds |  |  |  |  |  |  |  |
| PfPHD1 (from UniProt Q8IJW2 1-3853) |  | binds | binds | binds | binds |  |  |  |
| PfPHD2 (from UniProt Q8ILC9 1-5757) | binds | binds | binds | binds | binds |  |  |  |
| B1 | binds | binds | binds | binds |  |  |  |  |
| B2 | binds | binds | binds | binds |  | binds | no binding |  |
| B3 | binds | binds |  |  |  |  |  |  |
| B4 |  | binds |  |  |  |  |  |  |
| B5 | binds |  |  |  |  |  |  | binds |

Read-outs that look alike come from different tables or passages of the source. No constants are given. Whether binding was seen depends on the method and setting. Binding seen in cells or lysates may run through a third protein. Here binding means that the protein was enriched with, or labelled near, the bait; the list need not be complete. For some assays here: A no says only that the protein was not detected with the bait. For some assays here: Tags and fused reporters may be left off the sequences shown.
